Reference: publication doi:10.1101/2021.02.17.431740
No constants are given. Whether binding was seen depends on the method and setting. In cells and extracts the contact can be indirect. Some results given as binding are weak or reduced against the parent protein; the word gives no strength. Where a sequence is shown, tags or fusion partners need not be part of it.

Legend:
[1] = target: T1, HA-tagged WT PEAK3 (HEK293 cells), Q6ZS72; assay: co-IP; details: remark: other sources report otherwise
T1 chain: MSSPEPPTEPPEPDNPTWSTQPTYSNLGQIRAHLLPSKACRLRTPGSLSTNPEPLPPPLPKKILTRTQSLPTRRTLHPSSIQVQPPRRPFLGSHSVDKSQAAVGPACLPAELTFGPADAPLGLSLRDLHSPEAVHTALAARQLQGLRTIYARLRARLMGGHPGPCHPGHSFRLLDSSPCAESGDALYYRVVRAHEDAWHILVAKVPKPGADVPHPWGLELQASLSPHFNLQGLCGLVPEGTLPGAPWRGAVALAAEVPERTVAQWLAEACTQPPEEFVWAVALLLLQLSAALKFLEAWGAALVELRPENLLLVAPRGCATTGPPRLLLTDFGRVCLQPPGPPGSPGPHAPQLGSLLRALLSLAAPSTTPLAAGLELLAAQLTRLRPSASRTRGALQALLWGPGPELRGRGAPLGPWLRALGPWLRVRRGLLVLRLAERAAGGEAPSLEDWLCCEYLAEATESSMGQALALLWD

[2] = target: T2, HA-tagged WT PEAK3 (HEK293 cells) (UniProt Q6ZS72); assay: co-IP
T2 sequence: T1 chain

B1: CrkII (HEK293 cells), P46108-1 1-304 (protein)
chain: MAGNFDSEERSSWYWGRLSRQEAVALLQGQRHGVFLVRDSSTSPGDYVLSVSENSRVSHYIINSSGPRPPVPPSPAQPPPGVSPSRLRIGDQEFDSLPALLEFYKIHYLDTTTLIEPVSRSRQGSGVILRQEEAEYVRALFDFNGNDEEDLPFKKGDILRIRDKPEEQWWNAEDSEGKRGMIPVPYVEKYRPASASVSALIGGNQEGSHPQPLGGPEPGPYAQPSVNTPLPNLQNGPIYARVIQKRVPNAYDKTALALEVGELVKVTKINVSGQWEGECNGKRGHFPFTHVRLLDQQNPDEDFS
For B1, the binding [1] was “binds”.

B2: HA-tagged WT PEAK3 (HEK293 cells) (protein, UniProt Q6ZS72 1-473)
chain: T1 chain
For B2, the binding [2] was “binds”.
